# The list shows a part of the results.
# Test: NALP1 inflammasome inhibitors in reconstituted yeast, colorimetric, S. cerevisiae, triplicate retest (AID 2071)
# Conditions: S. cerevisiae NALP1/ASC/caspase-1 growth, X-gal OD620, 72 h, at 20 µM, stronger effect = higher value
row,Compound,inhibition [%]
1,CC(=O)NC(SC(=S)N(C)C)C(Cl)(Cl)Cl (stereo not drawn),113
2,O=C(OC1CN2CCC1CC2)C12CC3CC(CC(C3)C1)C2 (stereo not drawn),22.1
3,O=[N+]([O-])c1cc([N+](=O)[O-])c(-c2ccn[nH]2)s1,39.9

# Source: PubChem BioAssay AID2071 (Sanford-Burnham Center for Chemical Genomics, 2009)
